Values after ≈ are worked out from the molar mass of the structure shown.
Experiments:
MCF7 = assay: Cytotoxicity against human MCF7 cells after 48 hrs by SRB assay; assay type: functional, cell-based
Method in brief: (§1)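 Cells were seeded and left 24 h to attach before dosing, then exposed to test compound at […], in triplicate wells per dose. Incubation was 48 h at 37 °C under 5% CO2. Cells were then fixed, washed and stained with sulforhodamine B, excess dye was removed with acetic acid, bound dye was recovered in Tris-EDTA buffer, and colour intensity was read on an ELISA reader.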

HeLa = assay: Cytotoxicity against human HeLa cells after 48 hrs by SRB assay; assay type: functional, cell-based; method in brief: as §1

Compound `COc1cccc2c1C(=O)c1c(O)c3c(c(O)c1C2=O)C[C@@](O)(C(=O)CO)C[C@@H]3O[C@H]1C[C@H](N)[C@H](O)[C@H](C)O1` [DOXORUBICIN] has an IC50 (MCF7) of 6.71 µg/mL (≈ 12.3 µM) and an IC50 (HeLa) of 8.72 µg/mL (≈ 16 µM).

— ChEMBL document CHEMBL1154721, “Synthesis, antitumor activity and molecular docking study of novel sulfonamide-Schiff's bases, thiazolidinones, benzothiazinones and their C-nucleoside derivatives” (Eur J Med Chem, 2010)
